The text below walks through data of the supplement of paper PMC12067093, “Discovery and optimisation of a covalent ligand for TRIM25 and its application to targeted protein ubiquitination” (Chemical Science, 2025).

Protein sequences, listed by entry. Tags and fused reporters are not part of them. Lines headed by an entry give the natural chain unless they say otherwise; changes in a name come on top.
UniProt Q14088: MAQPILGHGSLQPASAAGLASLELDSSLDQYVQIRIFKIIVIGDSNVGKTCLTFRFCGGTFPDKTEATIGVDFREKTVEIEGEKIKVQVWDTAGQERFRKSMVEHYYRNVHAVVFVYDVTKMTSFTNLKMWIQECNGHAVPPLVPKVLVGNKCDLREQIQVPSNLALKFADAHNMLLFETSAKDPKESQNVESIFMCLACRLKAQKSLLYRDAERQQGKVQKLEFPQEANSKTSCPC
UniProt P47897: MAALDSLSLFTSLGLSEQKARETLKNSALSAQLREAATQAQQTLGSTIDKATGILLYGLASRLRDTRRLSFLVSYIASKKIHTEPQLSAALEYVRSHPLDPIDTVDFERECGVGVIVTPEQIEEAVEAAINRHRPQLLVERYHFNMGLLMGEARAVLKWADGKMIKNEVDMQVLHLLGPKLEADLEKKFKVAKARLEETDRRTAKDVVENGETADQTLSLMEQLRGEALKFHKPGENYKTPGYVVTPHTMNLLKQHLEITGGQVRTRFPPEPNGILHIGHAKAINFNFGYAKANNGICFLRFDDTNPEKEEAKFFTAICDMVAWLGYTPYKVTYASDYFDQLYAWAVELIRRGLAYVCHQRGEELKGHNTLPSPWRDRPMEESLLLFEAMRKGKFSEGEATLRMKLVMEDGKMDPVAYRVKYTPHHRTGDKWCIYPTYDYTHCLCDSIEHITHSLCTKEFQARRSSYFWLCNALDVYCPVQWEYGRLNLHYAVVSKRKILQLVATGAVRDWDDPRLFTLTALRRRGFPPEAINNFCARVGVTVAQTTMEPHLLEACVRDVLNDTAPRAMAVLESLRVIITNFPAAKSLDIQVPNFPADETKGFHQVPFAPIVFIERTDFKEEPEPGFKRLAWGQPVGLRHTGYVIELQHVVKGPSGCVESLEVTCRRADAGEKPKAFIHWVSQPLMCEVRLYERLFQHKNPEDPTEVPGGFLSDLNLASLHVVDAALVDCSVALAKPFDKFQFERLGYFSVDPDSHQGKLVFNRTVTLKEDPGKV
UniProt Q9Y3P9: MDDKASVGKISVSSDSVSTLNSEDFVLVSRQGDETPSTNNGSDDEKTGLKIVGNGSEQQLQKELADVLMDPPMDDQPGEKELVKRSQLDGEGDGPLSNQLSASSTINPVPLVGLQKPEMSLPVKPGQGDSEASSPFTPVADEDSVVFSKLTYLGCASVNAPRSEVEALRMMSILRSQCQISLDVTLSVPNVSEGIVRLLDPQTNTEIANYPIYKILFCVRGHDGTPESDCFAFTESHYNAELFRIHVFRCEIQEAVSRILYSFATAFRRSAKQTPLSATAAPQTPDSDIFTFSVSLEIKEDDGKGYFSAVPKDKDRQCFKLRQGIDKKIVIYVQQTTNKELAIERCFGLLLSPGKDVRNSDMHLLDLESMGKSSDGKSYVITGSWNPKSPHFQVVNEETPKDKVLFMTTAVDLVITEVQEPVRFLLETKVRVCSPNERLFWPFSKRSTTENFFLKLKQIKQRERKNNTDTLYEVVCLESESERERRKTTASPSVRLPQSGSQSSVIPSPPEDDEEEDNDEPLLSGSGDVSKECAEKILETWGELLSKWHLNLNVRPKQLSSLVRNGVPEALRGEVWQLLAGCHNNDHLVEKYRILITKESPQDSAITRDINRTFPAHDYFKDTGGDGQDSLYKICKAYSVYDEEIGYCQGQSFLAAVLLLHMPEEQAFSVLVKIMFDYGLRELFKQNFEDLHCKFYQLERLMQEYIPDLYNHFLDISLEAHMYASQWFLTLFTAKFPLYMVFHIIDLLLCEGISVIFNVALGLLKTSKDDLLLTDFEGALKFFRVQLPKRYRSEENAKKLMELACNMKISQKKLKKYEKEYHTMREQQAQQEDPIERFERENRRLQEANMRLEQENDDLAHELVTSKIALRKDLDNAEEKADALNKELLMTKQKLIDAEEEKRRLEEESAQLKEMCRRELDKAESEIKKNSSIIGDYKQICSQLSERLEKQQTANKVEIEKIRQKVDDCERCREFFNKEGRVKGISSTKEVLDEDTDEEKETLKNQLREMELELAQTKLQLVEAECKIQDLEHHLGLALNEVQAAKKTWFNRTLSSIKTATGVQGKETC
UniProt Q9Y4B4: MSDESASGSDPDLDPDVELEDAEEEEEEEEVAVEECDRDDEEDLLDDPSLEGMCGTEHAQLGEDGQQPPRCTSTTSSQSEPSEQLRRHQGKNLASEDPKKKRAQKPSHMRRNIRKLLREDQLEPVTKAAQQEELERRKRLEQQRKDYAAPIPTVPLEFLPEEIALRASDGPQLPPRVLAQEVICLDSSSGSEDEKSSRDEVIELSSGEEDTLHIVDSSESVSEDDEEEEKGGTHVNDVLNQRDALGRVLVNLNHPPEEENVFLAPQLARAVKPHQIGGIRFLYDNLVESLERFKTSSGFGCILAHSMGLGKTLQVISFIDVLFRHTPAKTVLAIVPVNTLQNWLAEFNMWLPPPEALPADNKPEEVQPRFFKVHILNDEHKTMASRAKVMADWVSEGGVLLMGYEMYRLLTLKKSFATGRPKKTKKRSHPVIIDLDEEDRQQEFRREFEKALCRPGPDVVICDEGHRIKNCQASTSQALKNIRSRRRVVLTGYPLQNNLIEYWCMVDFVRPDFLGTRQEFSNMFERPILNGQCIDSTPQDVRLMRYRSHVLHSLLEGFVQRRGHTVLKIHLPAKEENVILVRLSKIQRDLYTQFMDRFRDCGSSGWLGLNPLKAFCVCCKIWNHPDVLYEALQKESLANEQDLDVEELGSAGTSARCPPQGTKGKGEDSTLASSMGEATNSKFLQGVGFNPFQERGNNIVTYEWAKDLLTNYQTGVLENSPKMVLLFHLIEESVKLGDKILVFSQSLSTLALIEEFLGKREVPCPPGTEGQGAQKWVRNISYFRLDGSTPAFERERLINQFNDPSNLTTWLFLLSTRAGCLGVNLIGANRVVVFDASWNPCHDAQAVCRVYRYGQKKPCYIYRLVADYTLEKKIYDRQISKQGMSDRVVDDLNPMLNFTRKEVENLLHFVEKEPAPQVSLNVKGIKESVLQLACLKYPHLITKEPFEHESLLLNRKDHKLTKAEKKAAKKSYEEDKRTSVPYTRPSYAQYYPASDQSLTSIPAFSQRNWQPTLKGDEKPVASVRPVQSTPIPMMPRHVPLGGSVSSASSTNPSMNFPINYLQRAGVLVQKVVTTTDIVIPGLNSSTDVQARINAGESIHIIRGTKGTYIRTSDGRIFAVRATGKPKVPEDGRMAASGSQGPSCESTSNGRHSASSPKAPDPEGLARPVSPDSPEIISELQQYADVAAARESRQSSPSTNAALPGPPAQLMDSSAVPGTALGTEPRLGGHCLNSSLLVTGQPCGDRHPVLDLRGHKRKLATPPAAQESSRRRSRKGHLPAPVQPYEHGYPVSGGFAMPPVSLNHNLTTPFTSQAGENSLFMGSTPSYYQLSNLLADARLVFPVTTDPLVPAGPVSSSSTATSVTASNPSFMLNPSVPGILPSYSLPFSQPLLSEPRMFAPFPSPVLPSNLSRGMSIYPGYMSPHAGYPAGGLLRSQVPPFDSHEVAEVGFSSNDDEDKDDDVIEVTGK
UniProt Q96C36: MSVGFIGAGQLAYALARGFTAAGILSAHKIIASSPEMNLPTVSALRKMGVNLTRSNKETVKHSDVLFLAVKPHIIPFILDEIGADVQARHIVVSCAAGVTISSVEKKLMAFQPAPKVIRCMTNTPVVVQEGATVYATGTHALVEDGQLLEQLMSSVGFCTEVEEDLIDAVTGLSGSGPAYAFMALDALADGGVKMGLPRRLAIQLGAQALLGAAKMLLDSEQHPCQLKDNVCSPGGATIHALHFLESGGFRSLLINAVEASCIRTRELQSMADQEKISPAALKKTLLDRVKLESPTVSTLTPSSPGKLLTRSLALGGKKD
UniProt Q9H0H5: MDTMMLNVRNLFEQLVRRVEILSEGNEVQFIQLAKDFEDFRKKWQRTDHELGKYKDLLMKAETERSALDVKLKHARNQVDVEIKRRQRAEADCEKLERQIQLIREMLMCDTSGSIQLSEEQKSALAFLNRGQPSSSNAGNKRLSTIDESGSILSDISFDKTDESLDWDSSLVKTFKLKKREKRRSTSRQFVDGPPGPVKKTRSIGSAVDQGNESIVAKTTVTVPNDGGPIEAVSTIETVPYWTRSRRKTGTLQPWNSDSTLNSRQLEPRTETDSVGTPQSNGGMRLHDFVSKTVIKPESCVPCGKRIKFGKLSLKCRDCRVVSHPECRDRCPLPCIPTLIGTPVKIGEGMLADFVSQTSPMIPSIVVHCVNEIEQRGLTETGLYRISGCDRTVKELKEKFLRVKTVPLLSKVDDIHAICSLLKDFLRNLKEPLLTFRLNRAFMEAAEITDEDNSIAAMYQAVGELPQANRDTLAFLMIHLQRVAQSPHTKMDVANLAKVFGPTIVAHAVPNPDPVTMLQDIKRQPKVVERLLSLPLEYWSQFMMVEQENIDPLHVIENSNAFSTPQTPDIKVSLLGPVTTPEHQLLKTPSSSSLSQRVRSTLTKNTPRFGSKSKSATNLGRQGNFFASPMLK
UniProt Q53H96: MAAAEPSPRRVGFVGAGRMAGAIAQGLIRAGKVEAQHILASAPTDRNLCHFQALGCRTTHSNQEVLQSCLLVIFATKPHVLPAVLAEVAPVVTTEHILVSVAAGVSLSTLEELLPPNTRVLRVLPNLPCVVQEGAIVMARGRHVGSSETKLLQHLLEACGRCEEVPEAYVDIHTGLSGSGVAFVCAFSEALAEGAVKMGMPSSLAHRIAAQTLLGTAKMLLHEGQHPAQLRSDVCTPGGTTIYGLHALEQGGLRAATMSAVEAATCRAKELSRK
UniProt P78406: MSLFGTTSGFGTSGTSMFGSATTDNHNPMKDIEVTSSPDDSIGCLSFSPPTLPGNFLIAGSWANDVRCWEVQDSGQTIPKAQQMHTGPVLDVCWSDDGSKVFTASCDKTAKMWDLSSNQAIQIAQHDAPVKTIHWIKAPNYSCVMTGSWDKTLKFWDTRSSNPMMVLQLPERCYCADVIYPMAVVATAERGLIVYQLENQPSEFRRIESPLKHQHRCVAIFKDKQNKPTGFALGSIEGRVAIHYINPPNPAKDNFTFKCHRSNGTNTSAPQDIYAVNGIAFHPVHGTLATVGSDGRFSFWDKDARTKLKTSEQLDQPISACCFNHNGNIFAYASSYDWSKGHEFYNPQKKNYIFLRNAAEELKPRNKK
UniProt P06737: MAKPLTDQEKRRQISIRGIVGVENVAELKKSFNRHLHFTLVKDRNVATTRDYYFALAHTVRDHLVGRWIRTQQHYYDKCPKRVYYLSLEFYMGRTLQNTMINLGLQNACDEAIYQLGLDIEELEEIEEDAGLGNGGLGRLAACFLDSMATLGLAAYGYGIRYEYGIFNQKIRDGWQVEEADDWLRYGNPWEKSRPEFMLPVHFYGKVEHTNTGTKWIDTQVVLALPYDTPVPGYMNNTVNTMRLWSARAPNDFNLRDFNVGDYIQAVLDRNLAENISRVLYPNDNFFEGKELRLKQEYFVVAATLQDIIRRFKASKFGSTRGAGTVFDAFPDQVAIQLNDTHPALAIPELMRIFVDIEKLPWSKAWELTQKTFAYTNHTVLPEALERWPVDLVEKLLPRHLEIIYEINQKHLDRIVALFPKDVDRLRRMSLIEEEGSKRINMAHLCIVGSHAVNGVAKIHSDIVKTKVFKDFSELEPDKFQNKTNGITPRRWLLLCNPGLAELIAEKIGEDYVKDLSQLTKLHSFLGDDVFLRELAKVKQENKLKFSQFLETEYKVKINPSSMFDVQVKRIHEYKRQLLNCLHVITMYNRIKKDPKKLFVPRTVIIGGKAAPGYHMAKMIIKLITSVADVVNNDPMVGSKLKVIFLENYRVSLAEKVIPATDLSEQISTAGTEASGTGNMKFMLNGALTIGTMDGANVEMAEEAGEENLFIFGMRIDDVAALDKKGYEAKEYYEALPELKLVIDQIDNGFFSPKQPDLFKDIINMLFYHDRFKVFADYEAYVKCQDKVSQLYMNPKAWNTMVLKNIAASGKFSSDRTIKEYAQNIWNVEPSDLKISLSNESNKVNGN
UniProt Q92696: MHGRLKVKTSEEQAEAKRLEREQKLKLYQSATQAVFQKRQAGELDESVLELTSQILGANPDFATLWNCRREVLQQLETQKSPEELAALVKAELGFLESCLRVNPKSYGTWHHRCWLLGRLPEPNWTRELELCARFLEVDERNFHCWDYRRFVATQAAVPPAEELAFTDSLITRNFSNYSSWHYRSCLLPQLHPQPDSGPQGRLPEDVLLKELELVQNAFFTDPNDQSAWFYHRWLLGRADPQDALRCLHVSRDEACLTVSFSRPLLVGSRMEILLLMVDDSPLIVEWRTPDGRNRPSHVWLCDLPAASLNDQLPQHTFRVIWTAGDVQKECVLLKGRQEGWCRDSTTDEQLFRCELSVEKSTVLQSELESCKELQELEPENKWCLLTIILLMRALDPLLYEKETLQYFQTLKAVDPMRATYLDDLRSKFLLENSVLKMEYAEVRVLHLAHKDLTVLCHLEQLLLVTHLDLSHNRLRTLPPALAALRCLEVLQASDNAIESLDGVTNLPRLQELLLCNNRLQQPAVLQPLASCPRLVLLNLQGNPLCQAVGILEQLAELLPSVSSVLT

Compound in this assay: Cc1cc(ccc1-c1ccccc1)C(=O)N1CCCN(CC1)C(=O)CCl [compound 10]
Description: probe-labelled cysteine peptide fold change vs DMSO (competition) (log2 fold change); higher = less target engagement (more negative = stronger competition). The conditions noted are these: THP-1, incubation time: 4 h.

Some of the results follow.
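Further: competitive profiling in live THP-1 cells: cysteine peptides tagged with an iodoacetamide desthiobiotin (IA-DTB) probe, intensity after compound treatment relative to DMSO-treated cells.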

Regarding “RAB18_Q9NP72_155_TCDGVQCAFEELVEK (UniProt Q9NP72)”, the “probe-labelled cysteine peptide fold change” value (10 µM) was -0.252 and the “probe-labelled cysteine peptide fold change” value (50 µM) is -0.18.

In the case of PUS7_Q96PZ0_319_CLMNFK (UniProt Q96PZ0), the “probe-labelled cysteine peptide fold change” value was -0.0229 (10 µM) and -0.239 (50 µM).

“RABGAP1L_Q5R372_330_CFGMLLSPGR (UniProt Q5R372)”: the “probe-labelled cysteine peptide fold change” value worked out at 0.134 (10 µM) and 0.22 (50 µM).

On to “RAB33A_Q14088_57_FCGGTFPDK (UniProt Q14088)”, for which the “probe-labelled cysteine peptide fold change” value was 0.194 (10 µM) and 0.43 (50 µM).

As to “RAB43_Q86YS6_157_SDLSELREVSLAEAQSLAEHYDILCAIETSAK (UniProt Q86YS6)”, the “probe-labelled cysteine peptide fold change” value (10 µM) is -0.188 and the “probe-labelled cysteine peptide fold change” value (50 µM) is -0.247.

With “QRSL1_Q9H0R6_203_NPAAHCGLVGFKPSYGLVSR (UniProt Q9H0R6)”, the “probe-labelled cysteine peptide fold change” value reads like this: (10 µM) 0.0538; (50 µM) -0.0148.

Turning to “RAB3GAP2_Q9H2M9_792+793_DILDKPQSICCLHTMLSLLSK (UniProt Q9H2M9)”, the “probe-labelled cysteine peptide fold change” value by setting is: (10 µM) -0.317; (50 µM) -0.413.

Regarding “QARS_P47897_445_WCIYPTYDYTHCLCDSIEHITHSLCTK (UniProt P47897)”, the “probe-labelled cysteine peptide fold change” value was found to be 0.0467 (10 µM) and 0.0154 (50 µM).

As for “RABEPK_Q7Z6M1_36_VGHSCSYLPPVGNAK (UniProt Q7Z6M1)”, the “probe-labelled cysteine peptide fold change” value by setting is: (10 µM) -0.218; (50 µM) -0.0672.

With “PYGB_P11216_446_RINMAHLCVIGSHAVNGVAR (UniProt P11216)”, the “probe-labelled cysteine peptide fold change” value (10 µM) was -0.0101 and the “probe-labelled cysteine peptide fold change” value (50 µM) was determined as 0.163.

With “RAB33A_Q14088_135_MWIQECNGHAVPPLVPK (UniProt Q14088)”, the “probe-labelled cysteine peptide fold change” value is 0.0206 (10 µM) and 0.0086 (50 µM).

Turning to “RABGAP1_Q9Y3P9_346_CFGLLLSPGK (UniProt Q9Y3P9)”, the “probe-labelled cysteine peptide fold change” value (10 µM) came out at 0.0601 and the “probe-labelled cysteine peptide fold change” value (50 µM) is -0.112.

Regarding “QARS_P47897_657+665_GPSGCVESLEVTCR (UniProt P47897)”, the “probe-labelled cysteine peptide fold change” value is -0.0476 (10 µM) and -0.282 (50 µM).

Turning to “RABGAP1_Q9Y3P9_476_KNNTDTLYEVVCLESESERER (UniProt Q9Y3P9)”, the “probe-labelled cysteine peptide fold change” value is -0.254 (10 µM) and -0.296 (50 µM).

Turning to “PXN_P49023_564_KFHPEHFVCAFCLK (UniProt P49023)”, the “probe-labelled cysteine peptide fold change” value (10 µM) is -0.0109 and the “probe-labelled cysteine peptide fold change” value (50 µM) was -0.654.

“RAD54L2_Q9Y4B4_618_AFCVCCK (UniProt Q9Y4B4)”: the “probe-labelled cysteine peptide fold change” value was -0.173 (10 µM) and -0.639 (50 µM).

In the case of “PYCR2_Q96C36_232_DNVCSPGGATIHALHFLESGGFR (UniProt Q96C36)”, the “probe-labelled cysteine peptide fold change” value was 0.0302 (10 µM) and -0.123 (50 µM).

Consider “RAB3GAP1_Q15042_873_FVSCLLEQPEVLVTGAGR (UniProt Q15042)”, for which the “probe-labelled cysteine peptide fold change” value reads like this: (10 µM) -0.0929; (50 µM) 0.347.

In the case of “PWP2_Q15269_60_CVGLSPDGR (UniProt Q15269)”, the “probe-labelled cysteine peptide fold change” value reads like this: (10 µM) 0.0723; (50 µM) -0.164.

As for “RAB32_Q13637_162_DSSQSPSQVDQFCK (UniProt Q13637)”, the “probe-labelled cysteine peptide fold change” value is, setting by setting: (10 µM) 0.0381; (50 µM) 0.224.

As for “RABGAP1_Q9Y3P9_433_VCSPNER (UniProt Q9Y3P9)”, the “probe-labelled cysteine peptide fold change” value is 0.301 (10 µM) and 0.299 (50 µM).

Regarding “QTRT2_Q9H974_263_LISGVSRPDEVLECIER (UniProt Q9H974)”, the “probe-labelled cysteine peptide fold change” value (10 µM) amounted to 0.0125 and the “probe-labelled cysteine peptide fold change” value (50 µM) stood at 0.174.

“RACGAP1_Q9H0H5_327_VVSHPECR (UniProt Q9H0H5)”: the “probe-labelled cysteine peptide fold change” value was 0.0118 (10 µM) and -0.0695 (50 µM).

As to “QTRT1_Q9BXR0_67_GITTEQLDALGCR (UniProt Q9BXR0)”, the “probe-labelled cysteine peptide fold change” value (10 µM) worked out at 0.073 and the “probe-labelled cysteine peptide fold change” value (50 µM) is -0.35.

For the target “PWP1_Q13610_9_QVTCVAWVR (UniProt Q13610)”, the “probe-labelled cysteine peptide fold change” value is -0.0204 (10 µM) and -0.136 (50 µM).

For “RABEP1_Q15276_734_ENLEETLQLEIENCK (UniProt Q15276)”, the “probe-labelled cysteine peptide fold change” value was -0.102 (10 µM) and 0.0212 (50 µM).

For UniProt Q8N1Y9_Q8N1Y9_79_GCLPGK, the “probe-labelled cysteine peptide fold change” value runs as follows: (10 µM) -0.245; (50 µM) -0.0312.

Regarding “QARS_P47897_665_GPSGCVESLEVTCR (UniProt P47897)”, the “probe-labelled cysteine peptide fold change” value (10 µM) is -0.11 and the “probe-labelled cysteine peptide fold change” value (50 µM) was 0.446.

On to “RACK1_P63244_249_YWLCAATGPSIK (UniProt P63244)”, for which the “probe-labelled cysteine peptide fold change” value was 0.207 (10 µM) and 0.0731 (50 µM).

With “RABGAP1_Q9Y3P9_941_QICSQLSER (UniProt Q9Y3P9)”, the “probe-labelled cysteine peptide fold change” value (10 µM) is -0.145 and the “probe-labelled cysteine peptide fold change” value (50 µM) was 0.0919.

Turning to “PYCR3_Q53H96_49_NLCHFQALGCR (UniProt Q53H96)”, the “probe-labelled cysteine peptide fold change” value reads like this: (10 µM) -0.0647; (50 µM) -0.12.

In the case of “RAE1_P78406_106_VFTASCDK (UniProt P78406)”, the “probe-labelled cysteine peptide fold change” value (10 µM) is -0.028 and the “probe-labelled cysteine peptide fold change” value (50 µM) is -0.273.

In the case of “QSOX1_O00391_512_ELCSACHNER (UniProt O00391)”, the “probe-labelled cysteine peptide fold change” value was -0.11 (10 µM) and -0.592 (50 µM).

In the case of “PYGL_P06737_446_RINMAHLCIVGSHAVNGVAK (UniProt P06737)”, the “probe-labelled cysteine peptide fold change” value runs as follows: (10 µM) -0.0121; (50 µM) -0.0993.

In the case of “PYGL_P06737_581_QLLNCLHVITMYNR (UniProt P06737)”, the “probe-labelled cysteine peptide fold change” value reads like this: (10 µM) 0.0575; (50 µM) 0.206.

Regarding “RABGEF1_Q9UJ41_359_DLSIEEQSECAQDFYHNVAER (UniProt Q9UJ41)”, the “probe-labelled cysteine peptide fold change” value runs as follows: (10 µM) -0.389; (50 µM) -0.123.

As to “RAB35_Q15286_110_WLHEINQNCDDVCR (UniProt Q15286)”, the “probe-labelled cysteine peptide fold change” value by setting is: (10 µM) 0.00387; (50 µM) -0.0779.

For “RAB29_O14966_120_LTLPNGEPVPCLLLANK (UniProt O14966)”, the “probe-labelled cysteine peptide fold change” value (10 µM) is -0.176 and the “probe-labelled cysteine peptide fold change” value (50 µM) was determined as 0.0583.

In the case of “RABGGTA_Q92696_302_NRPSHVWLCDLPAASLNDQLPQHTFR (UniProt Q92696)”, the “probe-labelled cysteine peptide fold change” value (10 µM) was 0.0604 and the “probe-labelled cysteine peptide fold change” value (50 µM) was -0.00746.
